Reference: patent publication US9487515B2, “Compounds modulating c-fms and/or c-kit activity and uses therefor” (Plexxikon Inc., priority 2006, dated 2016)
Some of these results come from one statement about several compounds together.

Target: Fms (UniProt P07333)
Test: Fms assays of Examples 40 or 41 (AlphaScreen kinase assays at 10 and 100 μM ATP, 33P-ATP filter assay, RAW264.7 pFMS and M-NFS-60 M-CSF-stimulated proliferation)
Conditions: in at least one of the Fms assays described in Examples 40 or 41

IC50, < 1000 nM:
c1cnc2[nH]cc(Cc3ccc(NCCN4CCOCC4)nc3)c2c1 [P-0099, (2-Morpholin-4-yl-ethyl)-[5-(1H-pyrrolo[2,3-b]pyridin-3-ylmethyl)-pyridin-2-yl]-amine]
O=C(Nc1ccc(Cc2c[nH]c3ncccc23)cn1)c1ccc(Cl)c(Cl)c1 [P-0100, 3,4-Dichloro-N-[5-(1H-pyrrolo[2,3-b]pyridin-3-ylmethyl)-pyridin-2-yl]-benzamide]
O=C(Nc1ccc(Cc2c[nH]c3ncccc23)cn1)c1ccc(F)cc1Cl [P-0101, 2-Chloro-4-fluoro-N-[5-(1H-pyrrolo[2,3-b]pyridin-3-ylmethyl)-pyridin-2-yl]-benzamide]
Cc1cc(C(=O)Nc2ccc(Cc3c[nH]c4ncccc34)cn2)n(C)n1 [P-0102, 2,5-Dimethyl-2H-pyrazole-3-carboxylic acid [5-(1H-pyrrolo[2,3-b]pyridin-3-ylmethyl)-pyridin-2-yl]-amide]
O=C(Nc1ccc(Cc2c[nH]c3ncccc23)cn1)c1cccs1 [P-0103, Thiophene-2-carboxylic acid [5-(1H-pyrrolo[2,3-b]pyridin-3-ylmethyl)-pyridin-2-yl]-amide]
COc1cc(C(=O)Nc2ccc(Cc3c[nH]c4ncccc34)cn2)ccn1 [P-0104, 2-Methoxy-N-[5-(1H-pyrrolo[2,3-b]pyridin-3-ylmethyl)-pyridin-2-yl]-isonicotinamide]
O=C(Nc1ccc(Cc2c[nH]c3ncccc23)cn1)c1ccncc1 [P-0105, N-[5-(1H-Pyrrolo[2,3-b]pyridin-3-ylmethyl)-pyridin-2-yl]-isonicotinamide]
O=C(Nc1ccc(Cc2c[nH]c3ncccc23)cn1)c1cnccn1 [P-0106, Pyrazine-2-carboxylic acid [5-(1H-pyrrolo[2,3-b]pyridin-3-ylmethyl)-pyridin-2-yl]-amide]
O=C(Nc1ccc(Cc2c[nH]c3ncccc23)cn1)c1ccccn1 [P-0107, Pyridine-2-carboxylic acid [5-(1H-pyrrolo[2,3-b]pyridin-3-ylmethyl)-pyridin-2-yl]-amide]
Cc1ccc(C(=O)Nc2ccc(Cc3c[nH]c4ncccc34)cn2)cn1 [P-0108, 6-Methyl-N-[5-(1H-pyrrolo[2,3-b]pyridin-3-ylmethyl)-pyridin-2-yl]-nicotinamide]
Cc1cc(C(=O)Nc2ccc(Cc3c[nH]c4ncccc34)cn2)ccc1F [P-0109, 4-Fluoro-3-methyl-N-[5-(1H-pyrrolo[2,3-b]pyridin-3-ylmethyl)-pyridin-2-yl]-benzamide]
Cc1cnc(C(=O)Nc2ccc(Cc3c[nH]c4ncccc34)cn2)cn1 [P-0110, 5-Methyl-pyrazine-2-carboxylic acid [5-(1H-pyrrolo[2,3-b]pyridin-3-ylmethyl)-pyridin-2-yl]-amide]
O=C(Nc1ccc(Cc2c[nH]c3ncccc23)cn1)c1cccc(Cl)c1 [P-0111, 3-chloro-N-[5-(1H-pyrrolo[2,3-b]pyridin-3-ylmethyl)-pyridin-2-yl]-benzamide]
O=C(Nc1ccc(Cc2c[nH]c3ncccc23)cn1)c1ccc(F)c(C(F)(F)F)c1 [P-0112, 4-Fluoro-N-[5-(1H-pyrrolo[2,3-b]pyridin-3-ylmethyl)-pyridin-2-yl]-3-trifluoromethyl-benzamide]
O=C(Nc1ccc(Cc2c[nH]c3ncccc23)cn1)c1cccc(OC(F)(F)F)c1 [P-0113, N-[5-(1H-Pyrrolo[2,3-b]pyridin-3-ylmethyl)-pyridin-2-yl]-3-trifluoromethoxy-benzamide]
O=C(Nc1ccc(Cc2c[nH]c3ncccc23)cn1)c1cccc(C(F)(F)F)c1 [P-0114, N-[5-(1H-Pyrrolo[2,3-b]pyridin-3-ylmethyl)-pyridin-2-yl]-3-trifluoromethyl-benzamide]
O=C(Nc1ccc(Cc2c[nH]c3ncccc23)cn1)c1ccc(F)c(Cl)c1 [P-0115, 3-Chloro-4-fluoro-N-[5-(1H-pyrrolo[2,3-b]pyridin-3-ylmethyl)-pyridin-2-yl]-benzamide]
O=C(Nc1ccc(Cc2c[nH]c3ncccc23)cn1)c1ccc(F)c(F)c1 [P-0116, 3,4-Difluoro-N-[5-(1H-pyrrolo[2,3-b]pyridin-3-ylmethyl)-pyridin-2-yl]-benzamide]
O=C(Nc1ccc(Cc2c[nH]c3ncccc23)cn1)c1ccccc1Cl [P-0117, 2-Chloro-N-[5-(1H-pyrrolo[2,3-b]pyridin-3-ylmethyl)-pyridin-2-yl]-benzamide]
Cc1ccc(F)cc1C(=O)Nc1ccc(Cc2c[nH]c3ncccc23)cn1 [P-0118, 5-Fluoro-2-methyl-N-[5-(1H-pyrrolo[2,3-b]pyridin-3-ylmethyl)-pyridin-2-yl]-benzamide]
O=C(Nc1ccc(Cc2c[nH]c3ncccc23)cn1)c1ccccc1F [P-0119, 2-Fluoro-N-[5-(1H-pyrrolo[2,3-b]pyridin-3-ylmethyl)-pyridin-2-yl]-benzamide]
COc1cccc(C(=O)Nc2ccc(Cc3c[nH]c4ncccc34)cn2)c1 [P-0120, 3-Methoxy-N-[5-(1H-pyrrolo[2,3-b]pyridin-3-ylmethyl)-pyridin-2-yl]-benzamide]
O=C(Nc1ccc(Cc2c[nH]c3ncccc23)cn1)c1cccc(F)c1 [P-0121, 3-Fluoro-N-[5-(1H-pyrrolo[2,3-b]pyridin-3-ylmethyl)-pyridin-2-yl]-benzamide]
Cc1cccc(C(=O)Nc2ccc(Cc3c[nH]c4ncccc34)cn2)c1 [P-0122, 3-Methyl-N-[5-(1H-pyrrolo[2,3-b]pyridin-3-ylmethyl)-pyridin-2-yl]-benzamide]
O=C(Nc1ccc(Cc2c[nH]c3ncccc23)cn1)c1ccnc(Cl)c1 [P-0123, 2-Chloro-N-[5-(1H-pyrrolo[2,3-b]pyridin-3-ylmethyl)-pyridin-2-yl]-isonicotinamide]
C[C@@H](Nc1ccc(Cc2c[nH]c3ncccc23)cn1)c1ccccc1 [P-0125, ((R)-1-Phenyl-ethyl)-[5-(1H-pyrrolo[2,3-b]pyridin-3-ylmethyl)-pyridin-2-yl]-amine]
c1cc(CNc2ccc(Cc3c[nH]c4ncccc34)cn2)cc(N2CCOCC2)c1 [P-0126, (3-Morpholin-4-yl-benzyl)-[5-(1H-pyrrolo[2,3-b]pyridin-3-ylmethyl)-pyridin-2-yl]-amine]
CC(Nc1ccc(Cc2c[nH]c3ncccc23)cn1)c1ccccc1F (stereo not shown) [P-0127, [1-(2-Fluoro-phenyl)-ethyl]-[5-(1H-pyrrolo[2,3-b]pyridin-3-ylmethyl)-pyridin-2-yl]-amine]
Fc1cccc(CCNc2ccc(Cc3c[nH]c4ncccc34)cn2)c1 [P-0128, [2-(3-Fluoro-phenyl)-ethyl]-[5-(1H-pyrrolo[2,3-b]pyridin-3-ylmethyl)-pyridin-2-yl]-amine]
Clc1cccc(CNc2ccc(Cc3c[nH]c4ncccc34)cn2)c1 [P-0129, (3-chloro-benzyl)-[5-(1H-pyrrolo[2,3-b]pyridin-3-ylmethyl)-pyridin-2-yl]-amine]
Cn1cnc(CNc2ccc(Cc3c[nH]c4ncccc34)cn2)c1 [P-0130, (1-Methyl-1H-imidazol-4-ylmethyl)-[5-(1H-pyrrolo[2,3-b]pyridin-3-ylmethyl)-pyridin-2-yl]-amine]
